The target of experiment [1] is T1, MexA, mature form bearing a palmitoyl moiety, FITC-labeled (Pseudomonas aeruginosa), P52477.
T1 chain: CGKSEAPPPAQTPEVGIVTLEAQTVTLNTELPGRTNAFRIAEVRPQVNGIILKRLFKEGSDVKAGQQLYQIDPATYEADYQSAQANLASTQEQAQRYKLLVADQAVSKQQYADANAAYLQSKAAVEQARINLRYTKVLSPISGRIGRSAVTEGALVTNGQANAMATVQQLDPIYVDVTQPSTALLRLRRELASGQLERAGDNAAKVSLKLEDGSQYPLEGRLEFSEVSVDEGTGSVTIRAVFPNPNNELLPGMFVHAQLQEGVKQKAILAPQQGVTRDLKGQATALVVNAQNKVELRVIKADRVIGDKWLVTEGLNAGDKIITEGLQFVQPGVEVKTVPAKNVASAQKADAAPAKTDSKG
The experiment is described as follows: FRAPP (fluorescence recovery after fringe pattern photobleaching); FITC-labeled MexA alone in the C12E5/beta-OG L3 sponge phase, dW 90 to 320 A; diffusion coefficient compared with that of the lipid FITC-C16; 100 mM NaCl, 50 mM Na2HPO4 pH 7.5, 5% glycerol; both purified. The settings on record: remark: other sources report otherwise.

Experiment [2] concerns the target T2, OprM trimer, unlabeled (Pseudomonas aeruginosa) (UniProt Q51487).
T2 sequence (chain, palmitoyl moiety (said of the protein in general)): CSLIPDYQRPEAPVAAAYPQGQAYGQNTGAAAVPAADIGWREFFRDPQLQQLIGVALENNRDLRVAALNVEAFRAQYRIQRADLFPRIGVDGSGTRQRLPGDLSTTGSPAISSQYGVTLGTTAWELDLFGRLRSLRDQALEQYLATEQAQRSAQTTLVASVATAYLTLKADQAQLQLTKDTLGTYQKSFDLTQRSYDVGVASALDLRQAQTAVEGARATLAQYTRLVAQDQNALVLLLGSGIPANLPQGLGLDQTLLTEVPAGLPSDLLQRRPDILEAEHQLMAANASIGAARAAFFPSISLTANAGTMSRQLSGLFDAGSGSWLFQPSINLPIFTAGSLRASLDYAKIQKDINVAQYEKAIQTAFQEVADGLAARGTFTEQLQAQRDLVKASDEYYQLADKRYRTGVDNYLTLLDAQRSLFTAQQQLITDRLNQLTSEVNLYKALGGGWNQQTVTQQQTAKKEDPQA
The experiment is described as follows: condition: only bilayer separation dW>250 A (MexA 0.1 uM, OprM trimer 1 uM); FRAPP (fluorescence recovery after fringe pattern photobleaching); FITC-labeled MexA (0.1 uM) in sponge phase containing unlabeled OprM trimer (1 uM), bilayer separation dW>250 A (only lateral interactions possible); pH …; both purified.

In experiment [3] the target is T2, OprM trimer, unlabeled (Pseudomonas aeruginosa). The experiment is described as follows: condition: only bilayer separation dW<150 A (MexA 0.1 uM, OprM trimer 1 uM); FRAPP (fluorescence recovery after fringe pattern photobleaching); FITC-labeled MexA (0.1 uM) in sponge phase containing unlabeled OprM trimer (1 uM), bilayer separation dW<150 A; pH 7.5; both purified.

No constants are given. Whether binding was seen depends on the method and setting.

B1: MexA, mature form bearing a palmitoyl moiety, FITC-labeled, P52477 24-383 (protein)
chain: T1 chain
modifications: here or on the partner: palmitoyl moiety (on the unique N-terminal cysteine); FITC label; palmitoyl moiety (on the unique N-terminal cysteine); FITC label
On to B1, for which the binding entry in experiment [1] was “no binding”.

B2: MexA, mature form bearing a palmitoyl moiety, FITC-labeled (natural protein)
chain: T1 chain
modifications: palmitoyl moiety (on the unique N-terminal cysteine); FITC label
notes: MexA, periplasmic lipoprotein of the MexA-MexB-OprM efflux pump of Pseudomonas aeruginosa, in its mature form; Found monomeric in the sponge phase; also called FITC-labeled MexA; periplasmic protein MexA; source: solubilized in 1% beta-octylglucoside, then inserted into the L3 sponge phase
Take B2: the binding result in experiment [2] and in experiment [3] was “no binding” in each case.

Values taken from PMC2659767, “Tracking Membrane Protein Association in Model Membranes” (PLoS ONE, 2009).
